Assay results taken from PubChem BioAssay AID504444 (National Center for Advancing Translational Sciences (NCATS), 2011).
Screen size: about 360,000 compounds; about 7,500 (2.1%) were called active. The shares of active, inactive and inconclusive entries below differ from those in the screen. The call rests on the fitted dose curve; in most records, active means well fitted inhibition curve with a large enough effect; inconclusive means small, poorly fitted or top-dose-only effect, or effect the other way; inactive means flat fitted curve, though single readings scatter. Where the call is inconclusive, the potency comes from a doubtful curve fit.

Test: Nrf2 qHTS screen for inhibitors; further: nearly all actives have a fitted effect of over 60% in size
Conditions: A549 ARE-Fluc reporter, luciferase luminescence, 18-24 h; activity change, negative = inhibition: at 46 µM (top of the series)
Procedure, shortened: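 Cells were seeded and rested 2 h, then exposed to compounds for 18-24 h. CellTiter-Fluor was read first as a viability measure. BugLite was added 15 min before the final luminescent read of ARE-luciferase activity in A549 cells.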
On the % scale 0 is the no-effect control and ±100 the full control effect; potency means the concentration at half of the fitted maximal effect.

Row | SMILES | Potency | activity change, negative = inhibition
1 | O=C(NCc1ccc2c(c1)OCO2)c1c(-c2ccsc2)sc2ccccc12 | inconclusive: 8.2 µM [activator, partial curve, poor fit] | 
2 | O=C(Cc1ccc(Br)cc1)Nc1ccc(S(=O)(=O)NCC2CCCO2)cc1 (centres undefined) | inconclusive: 20.6 µM [falling, single point] | 
3 | Cc1ccc(-n2nnnc2SCc2nnc(-c3ccccc3Br)o2)cc1 | inconclusive: 29.1 µM [falling, single point] | 
4 | CN(C)CCNC(=O)Cn1nc(N2CCN(c3ccccc3)CC2)ccc1=O | inconclusive: 6.51 µM [falling, partial curve, poor fit] | 
5 | COc1ccc(C)cc1S(=O)(=O)N1c2ccccc2CC1C (centres undefined) | inconclusive: 23.1 µM [falling, single point] | 
6 | c1cc(C2CCN(Cc3nc(-c4ccc5c(c4)OCO5)no3)CC2)ccn1 | active: 16.4 µM | 
7 | CC(C)(C)OC(=O)N1CCC(c2c(C(=O)N3CCN(c4ncccn4)CC3)cnn2-c2cccc(F)c2)CC1 | inconclusive: 8.2 µM [activator, partial curve] | 
8 | O=C(O)c1cccc(Cn2cccn2)c1 | inconclusive: 11.6 µM [activator, single point] | 
9 | Cc1ccc(C)c(S(=O)(=O)c2nnn3c2nc(N2CCCCC2)c2sccc23)c1 | inconclusive: 29.1 µM [falling, single point] | 
10 | Cc1ccc(-n2c(SCC(=O)O)nc3c(sc(=S)n3-c3ccc(C)c(C)c3)c2=O)cc1 |  | inactive: -9.51%
11 | O=C(CCNC(=O)c1ccc([N+](=O)[O-])cc1)Nc1ccc(S(=O)(=O)N2CCOCC2)cc1 | inconclusive: 9.2 µM [falling, partial curve] | 
12 | CCCN(CCC)c1ncnc2c1cnn2-c1ccc(OC)cc1 | inconclusive: 0.92 µM [activator, partial curve, poor fit] | 
13 | Cc1ccc(C(=O)c2ccc([N+](=O)[O-])cc2)cc1C | inconclusive: 7.31 µM [activator, partial curve, poor fit] | 
14 | Cc1cc(N2CCN(c3nc(-c4ccc([N+](=O)[O-])cc4)cs3)CC2)c2ccccc2n1 | inconclusive: 14.6 µM [falling, partial curve, poor fit] | 
15 | CCCCCCCn1c(=O)c(C(=O)OC)c(N)c2ccccc21 | inconclusive: 29.1 µM [falling, single point] | 
16 | CSc1cccc(N2CC(C(=O)N(CC(C)C)c3c(N)n(Cc4ccccc4)c(=O)[nH]c3=O)CC2=O)c1 (centres undefined) |  | inactive: 5.08%
17 | COc1cccc(OC)c1OCC(=O)Nc1ccc(S(=O)(=O)N2CCCC2)cc1 | inconclusive: 23.1 µM [falling, single point] | 
18 | CC(=O)N1c2ccc(S(=O)(=O)NCCC(=O)Nc3ccc(C)cc3Br)cc2CC1C (centres undefined) | inconclusive: 16.4 µM [falling, partial curve] | 
19 | O=C(CCc1ccccc1)NNC(=O)c1ccccn1 | inconclusive: 20.6 µM [falling, single point] | 
20 | O=C(N/N=C/c1cc(Br)cc(Br)c1O)c1cccc(N2CCCC2=O)c1 | inconclusive: 14.6 µM [falling, partial curve, poor fit] | 
21 | O=C(CNC(=O)c1cccc(Cl)c1)NCC(c1cccs1)N1CCOCC1 (centres undefined) | inconclusive: 29.1 µM [falling, single point] | 
22 | O=C(Nc1cc2c(cc1C(=O)O)OCCCO2)c1ccc(C(F)(F)F)cc1 | inconclusive: 7.31 µM [activator, partial curve] | 

4 structures from above, arranged by length of the SMILES, ascending.
Row | SMILES | Potency | activity change, negative = inhibition
19 | O=C(CCc1ccccc1)NNC(=O)c1ccccn1 | inconclusive: 20.6 µM [falling, single point] | 
13 | Cc1ccc(C(=O)c2ccc([N+](=O)[O-])cc2)cc1C | inconclusive: 7.31 µM [activator, partial curve, poor fit] | 
4 | CN(C)CCNC(=O)Cn1nc(N2CCN(c3ccccc3)CC2)ccc1=O | inconclusive: 6.51 µM [falling, partial curve, poor fit] | 
18 | CC(=O)N1c2ccc(S(=O)(=O)NCCC(=O)Nc3ccc(C)cc3Br)cc2CC1C (centres undefined) | inconclusive: 16.4 µM [falling, partial curve] | 

The list continues:

Row | SMILES | Potency | activity change, negative = inhibition
23 | O=C(NCc1ccccn1)c1nn(-c2ccccc2F)nc1CO | inconclusive: 18.4 µM [falling, partial curve, poor fit] | 
24 | COc1ccc(-c2cc(=O)c3cc(OC)ccc3[nH]2)cc1 | inconclusive: 2.91 µM [activator, partial curve] | 
25 | CCOC(=O)CNc1ccc(C(=O)OCC)cc1[N+](=O)[O-] |  | inactive: -4.5%
26 | CN(CC(=O)Nc1ccc(N2CCOCC2)cc1)Cc1c(O)ccc2ccccc12 | inconclusive: 23.1 µM [falling, partial curve, poor fit] | 
27 | O=C(c1ccccc1)N1CCN(C2c3cccc4cccc(c34)C2NS(=O)(=O)c2ccccc2)CC1 (centres undefined) | inconclusive: 16.4 µM [falling, single point] | 
28 | COc1ccccc1NS(=O)(=O)c1cc(NC(=O)c2ccc(Cl)nc2)ccc1Cl | active: 23.1 µM | 
29 | Clc1ccc(-c2cc(CN3CCOCC3)no2)cc1 | inconclusive: 2.06 µM [activator, partial curve, poor fit] | 
30 | CCOCCCNC(=S)NC1CC2CCC(C1)N2Cc1ccccc1 (centres undefined) |  | inactive: 0.652%
31 | N#C/C=C/C(=C\Nc1ccc(Cl)cc1)S(=O)(=O)c1ccccc1 | inconclusive: 7.31 µM [activator, partial curve] | 
32 | CCOc1ccc(NC(=O)Cn2c(=O)n(Cc3ccc(C(=O)NCc4ccc5c(c4)OCO5)cc3)c(=O)c3ccccc32)cc1 | inconclusive: 10.3 µM [falling, partial curve, poor fit] | 
33 | Cc1csc(SCC(=O)Nc2ccc(Cl)cn2)n1 | inconclusive: 20.6 µM [activator, single point] | 
34 | CC(C)NC(=O)c1cc(-c2cccs2)on1 | inconclusive: 9.2 µM [activator, partial curve, poor fit] | 
35 | Cc1cc(C)n2nc(N)c(N=Nc3ccccc3)c2n1 | inconclusive: 16.4 µM [activator, single point] | 
36 | CC(=O)N(C1CC(C)C(C#N)(C#N)C1(C#N)C#N)N(C)C (centres undefined) | inconclusive: 29.1 µM [falling, single point] | 
37 | NS(=O)(=O)c1ccc(N2N=C(c3ccccc3)CC2c2ccccc2Cl)cc1 (centres undefined) | active: 20.6 µM | 
38 | COc1ccc(S(=O)(=O)Cc2ccc(C(=O)NCc3cccs3)o2)cc1 | inconclusive: 4.11 µM [falling, partial curve, poor fit] | 
39 | COc1ccc(Nc2nnc(SC(C(=O)Nc3cc(C)ccc3C)c3ccccc3)s2)cc1 (centres undefined) | active: 8.2 µM | 
40 | O=C(Nc1nc2ccc(Br)cc2s1)c1ccco1 | inconclusive: 10.3 µM [activator, partial curve] | 
41 | Cc1cc(C(=O)OCn2nnc3ccccc3c2=O)c(C)o1 | inconclusive: 14.6 µM [activator, partial curve, poor fit] | 
42 | O=C(CSc1nnnn1-c1ccc(O)cc1)c1ccc(F)cc1 | inconclusive: 23.1 µM [activator, partial curve] | 
43 | O=C(NCCc1ccccc1)c1n[nH]c2ccccc12 | inconclusive: 4.61 µM [activator, full curve] | 
44 | NC(=O)c1ccc(NC(=O)COC(=O)c2ccc3c(c2)OCO3)cc1 | inconclusive: 32.6 µM [falling, partial curve, poor fit] | 

Row | SMILES | Potency | activity change, negative = inhibition
45 | C/C(=C\C(=O)c1ccc(Br)cc1)Nc1cccc(Cl)c1 | inconclusive: 20.6 µM [activator, partial curve] | 
46 | Cc1ccc2oc(=O)c3cnn(CC(=O)NC4CCCCC4C)c3c2c1 (centres undefined) | inconclusive: 5.8 µM [activator, partial curve, poor fit] | 
47 | N=C1CCCN1CC(=O)c1ccc(Cl)cc1 |  | inactive: 4.35%
48 | O/N=C/c1ccn(-c2ccc(Br)cc2)c1 | inconclusive: 16.4 µM [activator, partial curve] | 
49 | O=C(CSc1nc2c(c(=O)n1-c1ccccc1)SCC2)N1CCN(c2ccccc2)CC1 | inconclusive: 16.4 µM [falling, partial curve, poor fit] | 
50 | O=C(CNC(=O)C(c1ccccc1)c1ccccc1)N/N=C/c1ccc(O)c([N+](=O)[O-])c1 | inconclusive: 5.8 µM [falling, partial curve, poor fit] | 
51 | Cc1cc(C)c2nc(NC(=O)CN3C(=O)NC4(CCCC4)C3=O)sc2c1 | inconclusive: 23.1 µM [activator, partial curve, poor fit] | 
52 | Cc1ccc2cc3c(N)c(C(=O)N4CCOCC4)sc3nc2c1 | inconclusive: 18.4 µM [activator, partial curve] | 
53 | CCOC(=O)c1cnc(SCC(=O)c2ccccc2)nc1N | inconclusive: 2.31 µM [activator, full curve] | 
54 | Cc1ccc(NC(=O)C2CCCC2)c(Br)c1 | inconclusive: 29.1 µM [activator, single point] | 
55 | COc1cc(-c2nn3c(C4CCCCC4)nnc3s2)cc(OC)c1OC |  | inactive: -11.8%
56 | CCOc1ccc(NC(=O)Cn2c(=O)cc(C)c3c(C)nn(-c4ccc(CC)cc4)c32)cc1 | inconclusive: 32.6 µM [activator, single point] | 
57 | Cc1nc(NCCc2ccccc2)c2oc3ccccc3c2n1 | inconclusive: 29.1 µM [falling, single point] | 
58 | Cc1ccc2ncnc(Oc3ncccc3[N+](=O)[O-])c2c1 | inconclusive: 6.51 µM [activator, partial curve, poor fit] | 
59 | FC(F)Oc1ccc(NC(=S)NCc2ccccc2)cc1Cl | active: 23.1 µM | 
60 | COc1ccc(C(=O)/C=C/NCc2ccc(C)cc2)cc1 | inconclusive: 8.2 µM [activator, partial curve, poor fit] | 
61 | Cc1cc(OCC(=O)N2CCN(c3ccccc3)CC2)c2c(C)cc(=O)oc2c1 | inconclusive: 5.8 µM [activator, full curve] | 
62 | CCCCc1nc(NCCO)c(C#N)c2c1CCCC2 | inconclusive: 18.4 µM [falling, single point] | 
63 | Nc1ccc(C(=O)c2cccs2)cc1 | inconclusive: 9.2 µM [activator, partial curve] | 
64 | CCOC(=O)c1c(C)oc2nc(C)nc(Nc3cc(C)ccc3OC)c12 | inconclusive: 0.184 µM [activator, full curve, poor fit] | 
